According to paper PMC11633369:

tested on: His-BSD1 (Solanum lycopersicum (tomato)); assay: competition with a labelled probe; conditions: 50-fold unlabeled S2-3-2 abolishes binding; LightShift chemiluminescent EMSA kit (buffer per manufacturer, not stated), 20 min at room temperature, 10% native polyacrylamide gel; recombinant protein; protein details: His (N-terminal implied by construct name); label: biotin 3'

Sequence | binding result
CTTATTTCTCCATTTTACTC (double strand) [S2-3-2] | binds

tested on: His-BSD1 (Solanum lycopersicum (tomato)); assay: EMSA; conditions: LightShift chemiluminescent EMSA kit (buffer per manufacturer, not stated), 20 min at room temperature, 10% native polyacrylamide gel; recombinant protein; protein details: His (N-terminal implied by construct name); label: biotin 3'

Sequence | binding result
CTTATTTAAAAATTTTACTCCTTATTTAAAAATTTTACTCCTTATTTAAAAATTTTACTC (double strand) [Mut2 (3 copies)] | binds
CTTATTTACTTATTTACTTATTTACTTATTTA (double strand) [M2-1 (CTTATTTA, 4 copies)] | binds
CATTACACTTATTTAGTAGACATTACACTTATTTAGTAGACATTACACTTATTTAGTAGA (double strand) [GA3ox4 promoter probe (3 copies)] | binds more weakly
CTTATTTGCTTATTTGCTTATTTGCTTATTTG (double strand) [M2-3 (CTTATTTG, 4 copies)] | no binding
CTTAAAACTCCATTTTACTCCTTAAAACTCCATTTTACTCCTTAAAACTCCATTTTACTC (double strand) [Mut1 (S2-3-2 mutant, 3 copies)] | no binding
CTTATTTTCTTATTTTCTTATTTTCTTATTTT (double strand) [M2-2 (CTTATTTT, 4 copies)] | no binding
CTTATTTCCTTATTTCCTTATTTCCTTATTTC (double strand) [Tru21 (CTTATTTC, 4 copies)] | binds
CTTATTTCTCCATTCTTATTTCTCCATTCTTATTTCTCCATT (double strand) [Tru2 (3 copies)] | binds
TTCTCCATTTTACTCTTCTCCATTTTACTCTTCTCCATTTTACTC (double strand) [Tru1 (3 copies)] | no binding
CCATTTTACTCCATTTTACTCCATTTTACTCCATTTTACT (double strand) [Tru14] | no binding
TAACTTATTTCCAACTTGAATAACTTATTTCCAACTTGAATAACTTATTTCCAACTTGAA (double strand) [CPS2 promoter probe (3 copies)] | binds
TCCTTATTTATGTGATATAATCCTTATTTATGTGATATAATCCTTATTTATGTGATATAA (double strand) [KAO promoter probe (3 copies)] | binds
CTTATTTCTCCATTTTACTC (double strand) [S2-3-2] | binds

For at least one entry, the source does not settle the construct or the ends of the probe. For some assays here: No signal at the amounts used counts as a negative. For some assays here: At least one verdict was read from the data and is not stated in words by the source. For some assays here: Weaker means in comparison with the reference protein, sequence or condition of that experiment.
